Assay results published in the supplement of paper PMC12889115.
This is one part of the list. Values are raw readings; no control value is given beside them.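 In the initial screen, polymyxin B was used at a concentration that permeabilizes Salmonella's outer membrane but not its inner membrane. Maximum growth was set by DMSO wells with or without polymyxin B. Since plates varied, data were ranked per plate, and compounds giving the lowest OD600 advanced as hits.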

Test system: Salmonella enterica serovar Typhimurium SL1344
Test: bacterial growth OD600 after 18 h with compound and polymyxin B; higher = more bacterial growth (less inhibition)
Settings: 50 µM, Mueller-Hinton broth

| Compound | bacterial growth OD600 (polymyxin B 1 µg/mL) | bacterial growth OD600 (polymyxin B 0.75 µg/mL) |
| --- | --- | --- |
| CC(C)CNc1ccc(C(=O)N2CCCCC2CCn2cccn2)cn1 (stereo unspecified) | 0.978 | – |
| COc1cc(CN2CC[C@@H](N3CCCCCC3)[C@H](O)C2)cc(Cl)c1OC | – | 0.735 |
| O=C(CCc1cnccn1)N1CCC(C2CCN(c3ncccn3)CC2)C1 (stereo unspecified) | – | 0.841 |
| O=C(Cc1cc(F)ccc1F)N1CCC(C2(c3cccnc3)NC(=O)N(CC3CCCO3)C2=O)CC1 (stereo unspecified) | – | 0.878 |
| Cc1c[nH]c(C(=O)N2CCC3(CCCN(Cc4cccc(F)c4F)C3=O)C2)n1 (stereo unspecified) | 0.879 | – |
| CN(C)c1ncccc1CNC(=O)CCc1ccco1 | 0.924 | – |
| Nc1ncc(CN2CCCC(CO)(CCc3ccccc3)C2)cn1 (stereo unspecified) | – | 0.798 |
| COCC1CCCN(C2CCN(c3ccc(NC(=O)CCCCc4ccccc4)cc3)CC2)C1 (stereo unspecified) | – | 0.761 |
| CCOC(=O)CC1COCCN1C(=O)Cn1nnnc1CN1CCCC1 (stereo unspecified) | – | 0.861 |
| COc1cccc(OCc2nc(C(=O)N3CCCC(C)C3)co2)c1 (stereo unspecified) | 1.05 | – |
| CCn1nc(C)c(CNC(=O)c2cc(NC(=O)C3CCCCC3)cc3ncn(CCOC)c23)c1C | – | 0.801 |
| Cc1cc(CN(C)C(=O)c2csc3nc(-c4cccc(C(F)(F)F)c4)cn23)on1 | 1.11 | – |
| Cc1ccc(CC2(CCC(=O)N3CCCCC3c3ccccn3)CCC(=O)N2)cc1 (stereo unspecified) | – | 0.944 |
| Cc1cnc(C)c(-c2ccc3c(c2)CC(CNC(=O)CSc2ccccn2)O3)n1 (stereo unspecified) | – | 0.905 |
| O=C(c1cnn(-c2nccc(-c3cc4ccccc4o3)n2)c1C1CC1)N1CCN(CCO)CC1 | – | 0.959 |
| CCn1nc(C)c(CNc2nc3nonc3nc2N(C)C)c1C | – | 0.798 |

Copied from above for reference:

| Compound | bacterial growth OD600 (polymyxin B 1 µg/mL) | bacterial growth OD600 (polymyxin B 0.75 µg/mL) |
| --- | --- | --- |
| O=C(CCc1cnccn1)N1CCC(C2CCN(c3ncccn3)CC2)C1 (stereo unspecified) | – | 0.841 |
| O=C(Cc1cc(F)ccc1F)N1CCC(C2(c3cccnc3)NC(=O)N(CC3CCCO3)C2=O)CC1 (stereo unspecified) | – | 0.878 |
| Cc1c[nH]c(C(=O)N2CCC3(CCCN(Cc4cccc(F)c4F)C3=O)C2)n1 (stereo unspecified) | 0.879 | – |
| CN(C)c1ncccc1CNC(=O)CCc1ccco1 | 0.924 | – |
| Nc1ncc(CN2CCCC(CO)(CCc3ccccc3)C2)cn1 (stereo unspecified) | – | 0.798 |
| COCC1CCCN(C2CCN(c3ccc(NC(=O)CCCCc4ccccc4)cc3)CC2)C1 (stereo unspecified) | – | 0.761 |
| CCOC(=O)CC1COCCN1C(=O)Cn1nnnc1CN1CCCC1 (stereo unspecified) | – | 0.861 |
| COc1cccc(OCc2nc(C(=O)N3CCCC(C)C3)co2)c1 (stereo unspecified) | 1.05 | – |

Later entries.

| Compound | bacterial growth OD600 (polymyxin B 1 µg/mL) | bacterial growth OD600 (polymyxin B 0.75 µg/mL) |
| --- | --- | --- |
| Cc1noc(C)c1C(=O)N1CCC(C2CCN(CCc3ccccc3)CC2)C1 (stereo unspecified) | 0.981 | – |
| Cc1occc1C(=O)N(C)C(Cc1ccccc1)C1CCN(Cc2cccn2-c2ncccn2)CC1 (stereo unspecified) | – | 0.863 |
| Cc1nonc1CN(C)c1ccc(-c2nc(C3CC3)no2)cn1 | – | 0.675 |
| Cc1nonc1CN(C)C(=O)C1CCCN(c2nc(-c3ccccc3)nc3c2CCC3)C1 (stereo unspecified) | 0.008 | – |
| O=C1N(Cc2cccnc2)C[C@@H]2C[C@@H](c3cccc(-n4cccn4)c3)N3CCC[C@@]123 | – | 0.856 |
| COC(=O)c1cc(CNC(=O)c2cccs2)cc(NS(=O)(=O)c2cccc(C(F)(F)F)c2)c1 | – | 0.01 |
| O=C(CC1(c2ccccc2)CC(=O)N(CC2CCCCC2)C1=O)N(CCO)Cc1ccccc1 (stereo unspecified) | – | 0.002 |
| Cc1ccsc1C(=O)N(Cc1ccc(OCc2ccc3c(c2)OCO3)cc1)CC1CCCO1 (stereo unspecified) | – | 0.008 |
| COCCNC(=O)c1ccc(OC)cc1OC1CCN(Cc2ccc(C)o2)CC1 | 1.1 | – |
| CSc1ccc(CC2(CCC(=O)NCc3nc(-c4ccccc4)no3)CCC(=O)N2)cc1 (stereo unspecified) | – | 0.715 |
| CC(C)Cn1cc(C(=O)NCc2nc(-c3ccccc3)cs2)c(=O)c(C(=O)N2CCCCCC2)c1 | – | 0.094 |
| c1ccc(OCc2noc(-c3ccc(NCC4CCCCO4)nc3)n2)cc1 (stereo unspecified) | 0.721 | – |
| CC(=O)c1ccc(F)c(-c2cc(C)cc3c2OC(CNC(=O)C(C)(C)C)C3)c1 (stereo unspecified) | – | 0.732 |
| CCN(CCO)c1ccc(-c2nc(Cc3ccc(F)cc3)no2)cn1 | – | 0.04 |
| Cc1cccc(C)c1Oc1ncccc1CNC(=O)CC(C)C | 1.13 | – |
